From doi:10.1101/2021.07.28.454117
These are yes or no findings as the source states them, for the method shown. In cells and extracts the contact can be indirect. Some entries that bind do so weakly or less than the wild type. For part of these data: Tags and fused reporters may be left off the sequences shown.

T1: GFP-LGN (UniProt P81274)
T1 sequence: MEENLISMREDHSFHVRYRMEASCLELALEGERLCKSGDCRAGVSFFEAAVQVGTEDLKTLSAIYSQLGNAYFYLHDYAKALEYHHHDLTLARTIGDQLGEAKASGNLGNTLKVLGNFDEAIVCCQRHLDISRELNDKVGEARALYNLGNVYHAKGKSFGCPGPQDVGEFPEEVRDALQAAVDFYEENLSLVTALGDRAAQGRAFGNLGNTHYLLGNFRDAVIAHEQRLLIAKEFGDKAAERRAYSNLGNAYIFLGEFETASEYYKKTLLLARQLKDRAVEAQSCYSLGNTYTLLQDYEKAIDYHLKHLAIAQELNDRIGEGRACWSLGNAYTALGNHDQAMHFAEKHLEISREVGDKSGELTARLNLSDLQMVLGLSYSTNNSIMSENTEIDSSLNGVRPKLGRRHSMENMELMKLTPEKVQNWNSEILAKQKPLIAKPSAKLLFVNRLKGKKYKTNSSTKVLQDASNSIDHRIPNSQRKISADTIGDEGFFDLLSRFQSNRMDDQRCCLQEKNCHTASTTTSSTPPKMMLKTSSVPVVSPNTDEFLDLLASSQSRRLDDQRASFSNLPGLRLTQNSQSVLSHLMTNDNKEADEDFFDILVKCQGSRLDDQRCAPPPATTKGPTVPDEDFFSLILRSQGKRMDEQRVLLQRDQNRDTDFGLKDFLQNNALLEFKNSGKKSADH

T2: ANXA1-mCherry (UniProt P04083)
T2 sequence: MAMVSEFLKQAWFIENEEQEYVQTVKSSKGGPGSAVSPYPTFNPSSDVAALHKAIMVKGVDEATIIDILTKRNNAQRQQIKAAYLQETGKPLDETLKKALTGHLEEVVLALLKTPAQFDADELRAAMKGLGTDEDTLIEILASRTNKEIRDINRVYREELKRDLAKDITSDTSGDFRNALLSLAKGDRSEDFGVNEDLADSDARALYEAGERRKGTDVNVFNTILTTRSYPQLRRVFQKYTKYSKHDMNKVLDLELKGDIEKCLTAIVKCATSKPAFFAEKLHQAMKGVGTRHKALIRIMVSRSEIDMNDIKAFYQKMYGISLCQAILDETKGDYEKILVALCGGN

B1: Annexin A1 (ANXA1) (protein, UniProt P04083 1-346)
chain: T2 sequence
B2: LGN (endogenous) (protein, UniProt P81274 1-684)
chain: T1 sequence

What was measured:
[1] = target: T1, GFP-LGN; test: co-IP
[2] = target: T1, GFP-LGN; test: proximity ligation
[3] = target: T2, ANXA1-mCherry; test: co-IP

Binder | binding [1] | binding [2] | binding [3]
B1 | binds | binds | –
B2 | – | – | binds
